Measurements reported in PubChem BioAssay AID743454 (Peter MacCallum Cancer Centre, 2014)

Screen: 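Search for knock-downs that restore vorinostat killing in resistant colon cancer cells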 (primary screen)
System: human HCT116-VR colon cancer cells, selected for vorinostat resistance
Reagents: siRNA pool against human genes, 40 nM siRNA pool
Duration: vorinostat for 24 h, read-out about 72 h after transfection
Treatment: vorinostat at 2.5 µM final
Read-out: 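Cell viability by CellTiter-Fluor and caspase 3/7 activity by luminescence, each scaled to mock wells per plate, duplicates averaged, then robust z-scored over all plates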
Scale: viability robust z-score: higher = more viable cells than screen typical; caspase robust z-score: higher = more caspase 3/7 activity than screen typical
Active means: 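Hits are knock-downs in viability class RV1/RV2 or caspase class CA1/CA2, excluding ones that killed cells in the no-drug cell-count arm; hits then retested with single siRNAs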
In all, the deposit lists about 18,000 reagents; shown is a random part of them. 450 of them (2.5%) were called active. 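Single biological run; no consistent viability z cut-off exists, so the class columns, not z-scores, define the calls.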 Entries without a mark were called inactive. No sequences are given here.

gene | viability hit class | caspase hit class | viability robust z-score | caspase robust z-score
FILIP1L (filamin A interacting protein 1 like) | no change | no change | 1.99 | 0.64
CERKL (CERK like autophagy regulator) | no change | no change | 0.54 | -0.2
ZNF513 (zinc finger protein 513) | no change | no change | 1.04 | 1.26
ICA1L (islet cell autoantigen 1 like) | no change | no change | 0.09 | -0.11
S100A2 (S100 calcium binding protein A2) | no change | no change | 0.24 | 1.8
AHSP (alpha hemoglobin stabilizing protein) | no change | no change | -3.92 | -1.37
NADK2 (NAD kinase 2, mitochondrial) | no change | no change | -0.93 | -0.52
ABAT (4-aminobutyrate aminotransferase) | no change | no change | 1.43 | -0.9
TMEM87B (transmembrane protein 87B) | no change | no change | 0.36 | 0.12
FLJ46838 (retired record) | no change | no change | 0.42 | 1.92
AHDC1 (AT-hook DNA binding motif containing 1) | no change | no change | 0.16 | 1.09
DNAJB3P (DnaJ heat shock protein family (Hsp40) member B3, pseudogene) | no change | no change | 0.26 | 0.89
RRAGA (Ras related GTP binding A) | no change | no change | -1.8 | 0.44
NUCB1 (nucleobindin 1) | no change | no change | -0.42 | 2.23
CPA2 (carboxypeptidase A2) | no change | no change | 0.72 | 0.01
COL21A1 (collagen type XXI alpha 1 chain) | no change | no change | 0.4 | -0.55
SERPINB12 (serpin family B member 12) | no change | no change | -3 | 0.36
RAB6A (RAB6A, member RAS oncogene family) | no change | no change | 0.42 | 0.26
GALR1 (galanin receptor 1) | no change | no change | -0.64 | 1.04
GPR32 (G protein-coupled receptor 32) | no change | no change | -0.24 | 0.84
APCDD1 (APC down-regulated 1) | no change | no change | -0.72 | 0.34
DIS3L (DIS3 like exosome 3'-5' exoribonuclease) | no change | no change | 0.76 | 0.14
YWHAH | no change | no change | 0.72 | 0.66
WDR5B (WD repeat domain 5B) | no change | no change | -0.36 | 0.22
UBE2W (ubiquitin conjugating enzyme E2 W) | no change | no change | -0.47 | 0.03
KCNE2 | no change | no change | 1.55 | -0.44
CCT5 (chaperonin containing TCP1 subunit 5) | no change | no change | -0.2 | -0.74
VCPKMT (valosin containing protein lysine methyltransferase) | no change | no change | -0.36 | 1.81
DMBX1 (diencephalon/mesencephalon homeobox 1) | no change | no change | 0.58 | -0.54
KCNK1 (potassium two pore domain channel subfamily K member 1) | no change | no change | 0.12 | -0.59
DNAJC12 (DnaJ heat shock protein family (Hsp40) member C12) | no change | no change | -0.32 | 3.78
PCMTD1 | no change | no change | -0.31 | -0.8
PIK3C2B | no change | no change | -0.44 | 0.57
TIGD5 (tigger transposable element derived 5) | no change | no change | 2.12 | 0
RALA (RAS like proto-oncogene A) | no change | no change | -0.02 | -0.44
COX8A (cytochrome c oxidase subunit 8A) | no change | no change | 0.9 | -0.56
IL17A (interleukin 17A) | no change | no change | -2.91 | 1.64
SLC36A3 | no change | no change | 0.09 | 1.38
ZNF711 (ZFX family zinc finger ZNF711) | no change | no change | 0.22 | -0.17
NCAPG2 (non-SMC condensin II complex subunit G2) | no change | no change | -0.32 | 1.55
ZFY (zinc finger protein Y-linked) | no change | no change | -0.57 | 0.16
RMND1 (required for meiotic nuclear division 1 homolog) | no change | no change | 1.36 | 0.24
RAC1 (Rac family small GTPase 1) | no change | no change | 0.2 | -0.54
SRPRA (SRP receptor subunit alpha) | no change | no change | -0.49 | 0.9
ESD (esterase D) | no change | no change | 2.91 | 0.59
ZFYVE9 (zinc finger FYVE-type containing 9) | no change | no change | 0.98 | 0.34
WEE1 (WEE1 G2 checkpoint kinase) | no change | no change | -1.06 | 0.68
RAB31 (RAB31, member RAS oncogene family) | no change | no change | -0.24 | -0.56
AMOT (angiomotin) | no change | no change | 0.22 | 0.05
SPIRE2 (spire type actin nucleation factor 2) | no change | no change | 0.22 | -0.08
KRT80 (keratin 80) | no change | no change | -1.01 | 0.46
GRIK2 (glutamate ionotropic receptor kainate type subunit 2) | no change | no change | -0.03 | -0.31
UBC (ubiquitin C) | RV2 (reduced viability) (active) | no change | -6.8 | -0.79
PYCR3 (pyrroline-5-carboxylate reductase 3) | no change | no change | -0.99 | 0.68
ZNF286A (zinc finger protein 286A) | no change | no change | -0.85 | -1.08
ACSM6 (acyl-CoA synthetase medium chain family member 6) | no change | no change | -0.14 | -0.86
OR1D5 (olfactory receptor family 1 subfamily D member 5) | no change | no change | 1.73 | -0.36
